Laboratory results reported in patent US20100136034A1 (CENTRE NATIONAL DE LA RECHERCHE SCIENTIFIQUE, priority 2007, published 2010).

Legend:
[1] = general procedure: Fmoc solid-phase peptide synthesis; 2-chlorotrityl chloride resin; BOP/HOBt/DIEA; conditions: TFA salt; for crude HPLC purity: C18 RP-HPLC
[2] = general procedure: Fmoc solid-phase peptide synthesis; 2-chlorotrityl chloride; BOP/HOBt/DIEA; conditions: whole synthesis, TFA salt

Substance	crude HPLC purity ([1]; whole synthesis)	crude yield [2]	crude HPLC purity ([1]; cyclisation step)	cyclisation yield ([1]; cyclisation step)	crude HPLC purity ([1]; late stage modification step)	step yield ([1]; late stage modification step)
H-(D)Ala-Lys(Boc)-(D)Lys(Acm)-Lys(Boc)-(D)Ala-Lys(Boc)-OH	73%	yield=100%	–	–	–	–
Cyclo[(D)Ala-Lys(Boc)-(D)Lys(Acm)-Lys(Boc)-(D)Ala-Lys(Boc)]	–	–	87%	77%	–	–
Cyclo[(D)Ala-Lys(Boc)-(D)Lys(Nps)-Lys(Boc)-(D)Ala-Lys(Boc)]	–	–	60%	83%	–	–
cyclo[D)Ala-Lys-(D)Lys(Acm)-Lys-(D)Ala-Lys]	–	–	–	–	86%	85%
cyclo[(D)Ala-Lys-(D)Lys(Nps)-Lys-(D)Ala-Lys]	–	–	–	–	66%	87%
H-(D)Ala-Lys(Boc)-(D)Lys(Nps)-Lys(Boc)-(D)Ala-Lys(Boc)-OH	60%	yield: 100%	–	–	–	–
